Assay results published in PMC11535055, “ER-phagy restrains inflammatory responses through its receptor UBAC2” (The EMBO Journal, 2024).
No constants are given. Whether binding was seen depends on the method and setting. Binding seen in cells or lysates may run through a third protein. Here binding means that the protein was enriched with, or labelled near, the bait; the list need not be complete.

By UniProt entry, the sequences of proteins in these tests, tags left out.
UniProt Q7KZI7: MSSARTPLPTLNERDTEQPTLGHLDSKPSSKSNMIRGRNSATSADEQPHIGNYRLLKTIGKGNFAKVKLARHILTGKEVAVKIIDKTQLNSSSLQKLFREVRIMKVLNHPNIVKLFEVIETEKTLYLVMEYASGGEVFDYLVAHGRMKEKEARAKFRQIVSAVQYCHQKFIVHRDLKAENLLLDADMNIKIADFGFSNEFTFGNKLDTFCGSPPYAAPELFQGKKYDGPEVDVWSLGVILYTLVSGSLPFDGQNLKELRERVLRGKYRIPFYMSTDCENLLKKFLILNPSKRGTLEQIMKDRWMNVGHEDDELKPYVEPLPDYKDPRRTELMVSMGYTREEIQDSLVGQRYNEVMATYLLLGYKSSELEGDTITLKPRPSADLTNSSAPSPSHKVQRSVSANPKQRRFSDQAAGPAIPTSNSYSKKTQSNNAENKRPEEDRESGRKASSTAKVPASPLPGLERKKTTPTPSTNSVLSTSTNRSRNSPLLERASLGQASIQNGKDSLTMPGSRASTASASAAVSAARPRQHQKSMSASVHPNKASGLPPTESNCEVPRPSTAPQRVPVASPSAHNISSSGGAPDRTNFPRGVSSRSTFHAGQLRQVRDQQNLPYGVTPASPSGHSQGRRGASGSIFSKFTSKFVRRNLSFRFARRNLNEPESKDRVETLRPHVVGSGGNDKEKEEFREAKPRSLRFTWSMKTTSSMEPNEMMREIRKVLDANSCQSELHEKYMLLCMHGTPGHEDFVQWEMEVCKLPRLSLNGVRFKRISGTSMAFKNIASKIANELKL

Target: T1, UBAC2, endogenous (human (endogenous in HeLa, THP-1, HT-29)) (UniProt Q8NBM4)
T1 sequence: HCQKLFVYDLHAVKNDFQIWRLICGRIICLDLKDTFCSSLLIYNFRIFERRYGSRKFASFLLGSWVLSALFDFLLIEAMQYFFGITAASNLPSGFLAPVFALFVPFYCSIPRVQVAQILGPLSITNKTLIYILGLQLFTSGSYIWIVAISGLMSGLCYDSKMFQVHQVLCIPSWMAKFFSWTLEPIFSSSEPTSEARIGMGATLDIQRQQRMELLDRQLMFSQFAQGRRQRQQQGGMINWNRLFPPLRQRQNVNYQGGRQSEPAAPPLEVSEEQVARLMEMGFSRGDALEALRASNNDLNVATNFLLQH
Assay: affinity purification with mass spectrometry; HeLa lysates immunoprecipitated with antibody against UBAC2; eluates resolved by SDS-PAGE, trypsin digest, LC-MS/MS (Q Exactive)

For “microtubule affinity-regulating kinase 2 (MARK2), endogenous (from UniProt Q7KZI7 1-788) (enzyme)”, the binding was “binds”.
